At least one compound was matched to its structure with a doubt left.
Tested on: A549 cells
Settings: read-out: CC50 (compound concentration of 50% cytotoxicity), 24 h, MTS assay

`N#Cc1cc2c(OCC(O)CN3CCN(C(c4ccccc4)c4ccccc4)CC3)cccc2[nH]1` (stereo not shown) [SDZ-201106] gave a CC50 of 29 µM.

Source: US8629283B2, “Compounds that modulate negative-sense, single-stranded RNA virus replication and uses thereof” (Icahn School of Medicine at Mount Sinai, priority 2008, dated 2014)
